Measurements reported in PubChem BioAssay AID1259326 (Drosophila RNAi Screening Center, 2017)
The whole screen tested 573 reagents; shown is a random part of them. Over the whole deposit, 39 (6.8%) got an active call. 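All actives have raised ATP, meaning more surviving cells; in these data active calls sit at averaged z-scores near 1.5 or above.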 Raw values are not corrected between plates. No sequences are given here. The record does not give: the amount of reagent.

Aim: 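Autophagy genes whose loss alters cell survival in toxic zinc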
Cell system: Drosophila S2R+ cells
Reagents: long dsRNA against Drosophila genes
Timing: about 5 days (4 days of RNAi, then 1 day of zinc)
Challenge: zinc chloride added to 15 mM final for one day
Measurement: 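Luminescent ATP signal marks surviving cells, read after RNAi for 4 days then 15 mM zinc chloride for 1 day; z-scores are replicate means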
Scale: averaged z-score: higher = more ATP than other wells, i.e. more surviving cells, after zinc; ATP luminescence: higher = more ATP, i.e. more surviving cells
Rule for the call: 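Called active when the averaged z-score lies outside -1.5 to 1.5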

averaged z-score	ATP luminescence, replicate 1	ATP luminescence, replicate 2	activity call	Target gene	amplicon
1.15	1.17e5	59757	inactive	Atg8b	DRSC14501
0.429	89344	81367	inactive	Atg8b	DRSC24428
0.0904	67955	85227	inactive	Atg8b	DRSC41156
0.446	1.03e5	89773	inactive	garz	DRSC07193
0.292	79875	83597	inactive	garz	DRSC32127
-0.192	71453	80081	inactive	garz	DRSC32128
-0.0831	85101	86393	inactive	Lkb1	DRSC16481
0.319	67132	77165	inactive	Lkb1	DRSC31372
0.27	86016	82740	inactive	Lkb1	DRSC36926
1.93	1.34e5	1.19e5	active	dre4	DRSC08714
4.44	1.59e5	1.52e5	active	dre4	DRSC33007
3.53	1.63e5	1.20e5	active	dre4	DRSC33008
-0.502	57597	67200	inactive	spg	DRSC14373
-0.122	91831	74352	inactive	spg	DRSC14881
-0.239	74095	75913	inactive	spg	DRSC36488
0.14	93736	85244	inactive	CCT3	DRSC16602
0.415	99569	65828	inactive	CCT3	DRSC40938
0.563	77937	96189	inactive	CCT3	DRSC41164
0.717	1.09e5	83455	inactive	EndoB	DRSC07345
0.186	83803	82051	inactive	EndoB	DRSC36301
-0.606	77971	78482	inactive	mTor	DRSC02811
-0.087	72791	68988	inactive	mTor	DRSC30664
-0.457	86102	39872	inactive	mTor	DRSC40810
0.86	1.09e5	90219	inactive	Orp8	DRSC15712
-0.161	79926	64919	inactive	Orp8	DRSC28849
0.0632	72997	82928	inactive	Orp8	DRSC41185
0.717	1.11e5	89653	inactive	Gp93	DRSC15827
-0.313	73100	73220	inactive	Gp93	DRSC27798
-0.239	60512	80818	inactive	Gp93	DRSC41225
0.923	1.03e5	98728	inactive	beta-PheRS	DRSC15859
0.689	92346	89190	inactive	beta-PheRS	DRSC26218
-0.191	64216	74884	inactive	beta-PheRS	DRSC41194
-0.0726	71059	68675	inactive	Rho1	DRSC30797
-0.179	75981	74774	inactive	Rho1	DRSC30798

The list goes on (4 carried over from the part before).
averaged z-score	ATP luminescence, replicate 1	ATP luminescence, replicate 2	activity call	Target gene	amplicon
0.689	92346	89190	inactive	beta-PheRS	DRSC26218
-0.191	64216	74884	inactive	beta-PheRS	DRSC41194
-0.0726	71059	68675	inactive	Rho1	DRSC30797
-0.179	75981	74774	inactive	Rho1	DRSC30798
0.506	1.05e5	1.38e5	inactive	Atg12	DRSC09803
0.198	65657	84609	inactive	Atg12	DRSC41151
0.212	1.08e5	77800	inactive	INPP5E	DRSC09723
-0.173	79429	79926	inactive	INPP5E	DRSC36899
-0.558	60430	67200	inactive	INPP5E	DRSC36900
0.116	99071	71608	inactive	Rab8	DRSC11261
-0.697	74489	59380	inactive	Rab8	DRSC31658
-0.994	55796	54390	inactive	Rab8	DRSC31659
0.235	1.12e5	76074	inactive	CG3803	DRSC04420
-0.232	79240	71591	inactive	CG3803	DRSC39915
-0.257	67217	76736	inactive	CG3803	DRSC41183
-0.613	83066	88572	inactive	ValRS-m	DRSC10535
-0.128	73134	69087	inactive	ValRS-m	DRSC41193
-0.121	98265	74306	inactive	Khc	DRSC24335
-0.296	66788	67360	inactive	Khc	DRSC31941
-0.0193	84901	78091	inactive	Khc	DRSC31942
-0.139	86239	74592	inactive	Nsf2	DRSC22104
0.549	1.01e5	70785	inactive	Nsf2	DRSC27428
1.25	88722	1.03e5	inactive	Nsf2	DRSC41232
0.566	1.16e5	79858	inactive	SNF4Agamma	DRSC16847
0.0775	83212	80493	inactive	SNF4Agamma	DRSC31404
0.181	73220	77422	inactive	SNF4Agamma	DRSC40676
0.0488	90030	93924	inactive	CG12795	DRSC00354
-0.0236	69155	75779	inactive	CG12795	DRSC41169
-0.218	96378	69979	inactive	Naa15-16	DRSC19440
0.0897	82379	70582	inactive	Naa15-16	DRSC31889
-0.519	64830	63652	inactive	Naa15-16	DRSC31890
-0.142	96087	72328	inactive	Vps16A	DRSC16422
0.126	82105	70963	inactive	Vps16A	DRSC36082
2.11	1.09e5	1.20e5	active	polo	DRSC34464
0.675	95829	98963	inactive	polo	DRSC37001
0.634	1.04e5	71368	inactive	polo	DRSC38944
-0.238	1.02e5	69241	inactive	Mcm2	DRSC26612
-0.376	72938	69224	inactive	Mcm2	DRSC35834
-0.335	63702	74198	inactive	Mcm2	DRSC41228
